Drawing on the supplement of paper PMC10849652, this text covers log2 fold change for 36 targets.

Chains of the proteins cited; added tags and fusions are not shown. Lines headed by an entry give the natural chain unless they say otherwise; changes in a name come on top.
UniProt Q9P013: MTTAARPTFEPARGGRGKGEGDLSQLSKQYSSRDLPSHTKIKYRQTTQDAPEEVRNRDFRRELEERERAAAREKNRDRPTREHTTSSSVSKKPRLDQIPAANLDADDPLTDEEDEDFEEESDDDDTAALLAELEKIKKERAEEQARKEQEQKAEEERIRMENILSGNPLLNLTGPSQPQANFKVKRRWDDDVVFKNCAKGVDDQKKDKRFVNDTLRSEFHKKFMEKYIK
UniProt P0DMU8: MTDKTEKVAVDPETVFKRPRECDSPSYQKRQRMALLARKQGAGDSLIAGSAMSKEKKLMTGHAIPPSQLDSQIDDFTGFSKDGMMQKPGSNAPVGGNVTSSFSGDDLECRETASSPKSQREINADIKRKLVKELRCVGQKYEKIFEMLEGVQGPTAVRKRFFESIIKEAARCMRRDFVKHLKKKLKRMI
UniProt P0DMU9: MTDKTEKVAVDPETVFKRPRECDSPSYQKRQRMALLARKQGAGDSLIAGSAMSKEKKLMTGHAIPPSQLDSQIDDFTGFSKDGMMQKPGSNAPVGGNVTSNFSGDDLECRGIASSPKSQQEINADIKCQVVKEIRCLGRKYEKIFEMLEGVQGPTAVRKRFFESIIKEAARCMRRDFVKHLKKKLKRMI
UniProt Q9NPI6: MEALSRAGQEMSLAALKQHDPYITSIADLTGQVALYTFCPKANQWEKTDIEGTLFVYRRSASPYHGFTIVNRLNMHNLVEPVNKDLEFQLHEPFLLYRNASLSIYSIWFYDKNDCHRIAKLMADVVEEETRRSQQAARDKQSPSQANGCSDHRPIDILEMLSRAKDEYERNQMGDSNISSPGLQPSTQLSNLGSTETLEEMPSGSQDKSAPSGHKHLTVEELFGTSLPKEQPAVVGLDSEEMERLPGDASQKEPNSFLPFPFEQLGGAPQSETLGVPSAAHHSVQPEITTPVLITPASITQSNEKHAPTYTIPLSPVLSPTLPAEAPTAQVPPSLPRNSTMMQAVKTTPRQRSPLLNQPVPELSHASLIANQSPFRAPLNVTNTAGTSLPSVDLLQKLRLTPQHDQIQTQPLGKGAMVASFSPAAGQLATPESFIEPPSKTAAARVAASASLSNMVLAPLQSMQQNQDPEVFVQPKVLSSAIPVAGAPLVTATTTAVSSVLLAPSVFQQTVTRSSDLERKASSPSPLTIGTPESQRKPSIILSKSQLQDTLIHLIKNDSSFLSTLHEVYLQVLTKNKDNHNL
UniProt Q8WUE5: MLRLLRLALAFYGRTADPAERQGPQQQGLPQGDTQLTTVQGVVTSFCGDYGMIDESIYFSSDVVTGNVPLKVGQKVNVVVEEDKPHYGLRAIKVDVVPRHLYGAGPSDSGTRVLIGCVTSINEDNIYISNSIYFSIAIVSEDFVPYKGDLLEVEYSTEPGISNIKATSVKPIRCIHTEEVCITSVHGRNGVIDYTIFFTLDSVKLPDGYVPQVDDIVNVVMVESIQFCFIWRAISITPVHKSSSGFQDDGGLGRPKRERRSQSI
UniProt Q13616, whole entry, looked up: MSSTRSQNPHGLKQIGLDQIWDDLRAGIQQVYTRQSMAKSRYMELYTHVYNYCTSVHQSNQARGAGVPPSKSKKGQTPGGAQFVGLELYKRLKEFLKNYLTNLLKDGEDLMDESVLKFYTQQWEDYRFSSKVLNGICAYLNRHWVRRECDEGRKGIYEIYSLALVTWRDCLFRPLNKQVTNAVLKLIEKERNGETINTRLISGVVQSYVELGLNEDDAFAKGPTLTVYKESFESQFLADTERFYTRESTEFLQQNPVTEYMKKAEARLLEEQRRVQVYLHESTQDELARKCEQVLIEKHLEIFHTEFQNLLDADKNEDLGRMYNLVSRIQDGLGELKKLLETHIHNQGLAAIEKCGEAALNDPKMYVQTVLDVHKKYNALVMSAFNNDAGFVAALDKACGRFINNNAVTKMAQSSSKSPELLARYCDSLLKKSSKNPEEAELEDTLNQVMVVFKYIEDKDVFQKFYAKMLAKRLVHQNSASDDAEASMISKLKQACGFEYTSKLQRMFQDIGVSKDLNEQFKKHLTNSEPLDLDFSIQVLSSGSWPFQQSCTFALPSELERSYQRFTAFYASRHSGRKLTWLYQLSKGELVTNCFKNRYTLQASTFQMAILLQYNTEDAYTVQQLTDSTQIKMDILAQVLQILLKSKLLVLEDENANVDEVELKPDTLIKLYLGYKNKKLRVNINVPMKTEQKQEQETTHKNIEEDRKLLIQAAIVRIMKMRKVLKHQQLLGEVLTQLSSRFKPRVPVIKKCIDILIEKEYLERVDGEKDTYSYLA
UniProt Q9NTM9: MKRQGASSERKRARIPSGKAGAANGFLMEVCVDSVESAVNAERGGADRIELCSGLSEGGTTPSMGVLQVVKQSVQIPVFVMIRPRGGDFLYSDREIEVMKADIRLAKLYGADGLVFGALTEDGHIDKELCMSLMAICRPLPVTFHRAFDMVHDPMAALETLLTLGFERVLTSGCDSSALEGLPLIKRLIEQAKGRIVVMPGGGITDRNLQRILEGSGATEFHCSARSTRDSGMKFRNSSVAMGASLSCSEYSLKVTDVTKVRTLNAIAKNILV
UniProt Q9Y4B6: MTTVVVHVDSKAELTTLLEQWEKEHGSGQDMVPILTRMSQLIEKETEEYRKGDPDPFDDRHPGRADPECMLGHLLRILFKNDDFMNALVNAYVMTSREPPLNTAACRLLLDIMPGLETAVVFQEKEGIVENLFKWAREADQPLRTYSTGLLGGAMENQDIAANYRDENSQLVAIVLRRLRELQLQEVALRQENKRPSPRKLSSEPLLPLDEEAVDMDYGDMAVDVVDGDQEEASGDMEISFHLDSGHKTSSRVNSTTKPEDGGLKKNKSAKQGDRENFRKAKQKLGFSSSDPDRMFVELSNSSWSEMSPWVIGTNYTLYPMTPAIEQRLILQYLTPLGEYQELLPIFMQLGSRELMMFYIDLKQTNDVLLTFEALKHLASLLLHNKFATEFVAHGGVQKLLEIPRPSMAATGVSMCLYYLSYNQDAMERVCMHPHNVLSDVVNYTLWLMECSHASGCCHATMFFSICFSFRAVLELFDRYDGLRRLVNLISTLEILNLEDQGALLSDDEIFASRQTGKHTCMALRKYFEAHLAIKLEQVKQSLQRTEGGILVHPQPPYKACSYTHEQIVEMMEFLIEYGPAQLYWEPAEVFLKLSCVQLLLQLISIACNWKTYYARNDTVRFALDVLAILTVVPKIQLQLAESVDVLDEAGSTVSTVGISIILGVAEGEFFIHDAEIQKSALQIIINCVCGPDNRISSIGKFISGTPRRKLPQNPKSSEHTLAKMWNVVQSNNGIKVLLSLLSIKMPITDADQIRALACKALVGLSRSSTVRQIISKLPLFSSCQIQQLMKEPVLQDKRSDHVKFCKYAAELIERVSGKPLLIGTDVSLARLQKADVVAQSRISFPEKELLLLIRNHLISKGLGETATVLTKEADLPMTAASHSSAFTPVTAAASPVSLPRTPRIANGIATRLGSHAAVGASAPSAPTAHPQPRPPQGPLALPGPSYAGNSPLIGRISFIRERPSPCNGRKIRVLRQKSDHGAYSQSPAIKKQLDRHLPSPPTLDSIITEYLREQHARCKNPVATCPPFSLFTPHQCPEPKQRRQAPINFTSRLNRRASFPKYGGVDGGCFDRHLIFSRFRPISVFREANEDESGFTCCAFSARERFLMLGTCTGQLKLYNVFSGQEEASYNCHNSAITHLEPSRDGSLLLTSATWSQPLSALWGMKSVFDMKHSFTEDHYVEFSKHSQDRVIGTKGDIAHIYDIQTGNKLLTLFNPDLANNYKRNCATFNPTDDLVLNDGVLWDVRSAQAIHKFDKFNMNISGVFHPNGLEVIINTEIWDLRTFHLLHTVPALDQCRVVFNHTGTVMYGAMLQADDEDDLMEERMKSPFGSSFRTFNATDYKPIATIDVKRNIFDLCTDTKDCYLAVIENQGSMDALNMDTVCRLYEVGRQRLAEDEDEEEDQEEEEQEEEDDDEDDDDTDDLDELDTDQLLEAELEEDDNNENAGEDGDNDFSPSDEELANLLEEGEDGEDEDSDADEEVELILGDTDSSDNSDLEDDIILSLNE
UniProt Q13619, whole entry, looked up: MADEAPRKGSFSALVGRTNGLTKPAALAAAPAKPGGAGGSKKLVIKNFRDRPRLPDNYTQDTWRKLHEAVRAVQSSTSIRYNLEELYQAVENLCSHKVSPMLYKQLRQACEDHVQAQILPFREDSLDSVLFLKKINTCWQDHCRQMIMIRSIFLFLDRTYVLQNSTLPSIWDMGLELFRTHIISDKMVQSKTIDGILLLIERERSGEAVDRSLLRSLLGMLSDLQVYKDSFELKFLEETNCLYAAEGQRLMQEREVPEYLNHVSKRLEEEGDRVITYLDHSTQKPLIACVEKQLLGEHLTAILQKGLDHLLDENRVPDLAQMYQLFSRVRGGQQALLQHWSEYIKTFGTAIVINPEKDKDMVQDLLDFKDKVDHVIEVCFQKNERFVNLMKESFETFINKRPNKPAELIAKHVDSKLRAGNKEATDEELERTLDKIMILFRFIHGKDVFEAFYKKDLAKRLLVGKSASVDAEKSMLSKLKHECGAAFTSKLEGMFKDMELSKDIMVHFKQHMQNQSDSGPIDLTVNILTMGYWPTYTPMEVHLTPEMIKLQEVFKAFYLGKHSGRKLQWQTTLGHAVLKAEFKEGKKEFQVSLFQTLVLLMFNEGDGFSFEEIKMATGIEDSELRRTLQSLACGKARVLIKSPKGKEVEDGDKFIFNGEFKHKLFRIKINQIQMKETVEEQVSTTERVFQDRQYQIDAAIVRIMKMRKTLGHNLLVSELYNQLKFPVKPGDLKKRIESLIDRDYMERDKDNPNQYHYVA
UniProt P61803: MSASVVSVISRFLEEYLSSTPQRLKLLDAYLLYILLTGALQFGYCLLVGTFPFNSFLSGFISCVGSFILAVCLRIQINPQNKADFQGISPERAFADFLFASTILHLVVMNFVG
UniProt P35221: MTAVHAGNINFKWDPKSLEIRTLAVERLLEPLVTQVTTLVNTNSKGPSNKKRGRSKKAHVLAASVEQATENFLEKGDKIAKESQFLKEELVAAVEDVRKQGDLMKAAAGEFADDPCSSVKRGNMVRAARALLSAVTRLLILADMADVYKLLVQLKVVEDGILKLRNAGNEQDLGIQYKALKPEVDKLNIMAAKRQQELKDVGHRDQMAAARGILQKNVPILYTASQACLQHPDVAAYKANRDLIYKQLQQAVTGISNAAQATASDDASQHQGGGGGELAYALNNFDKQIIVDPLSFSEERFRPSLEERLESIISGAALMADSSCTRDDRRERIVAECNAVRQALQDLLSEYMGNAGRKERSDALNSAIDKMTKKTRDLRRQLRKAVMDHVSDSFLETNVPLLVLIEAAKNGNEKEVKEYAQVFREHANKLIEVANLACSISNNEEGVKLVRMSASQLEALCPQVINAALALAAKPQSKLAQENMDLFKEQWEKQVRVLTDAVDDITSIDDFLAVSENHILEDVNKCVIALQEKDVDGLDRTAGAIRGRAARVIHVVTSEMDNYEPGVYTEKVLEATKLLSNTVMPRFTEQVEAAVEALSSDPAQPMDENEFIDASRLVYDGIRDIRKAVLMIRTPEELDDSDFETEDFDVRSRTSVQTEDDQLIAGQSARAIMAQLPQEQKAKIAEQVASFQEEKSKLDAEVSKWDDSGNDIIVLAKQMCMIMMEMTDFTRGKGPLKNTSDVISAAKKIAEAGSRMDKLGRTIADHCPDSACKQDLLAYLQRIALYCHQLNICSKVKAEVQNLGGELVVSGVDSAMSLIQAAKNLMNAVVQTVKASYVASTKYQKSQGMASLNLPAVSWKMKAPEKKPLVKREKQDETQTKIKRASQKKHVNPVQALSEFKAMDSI
UniProt P49711: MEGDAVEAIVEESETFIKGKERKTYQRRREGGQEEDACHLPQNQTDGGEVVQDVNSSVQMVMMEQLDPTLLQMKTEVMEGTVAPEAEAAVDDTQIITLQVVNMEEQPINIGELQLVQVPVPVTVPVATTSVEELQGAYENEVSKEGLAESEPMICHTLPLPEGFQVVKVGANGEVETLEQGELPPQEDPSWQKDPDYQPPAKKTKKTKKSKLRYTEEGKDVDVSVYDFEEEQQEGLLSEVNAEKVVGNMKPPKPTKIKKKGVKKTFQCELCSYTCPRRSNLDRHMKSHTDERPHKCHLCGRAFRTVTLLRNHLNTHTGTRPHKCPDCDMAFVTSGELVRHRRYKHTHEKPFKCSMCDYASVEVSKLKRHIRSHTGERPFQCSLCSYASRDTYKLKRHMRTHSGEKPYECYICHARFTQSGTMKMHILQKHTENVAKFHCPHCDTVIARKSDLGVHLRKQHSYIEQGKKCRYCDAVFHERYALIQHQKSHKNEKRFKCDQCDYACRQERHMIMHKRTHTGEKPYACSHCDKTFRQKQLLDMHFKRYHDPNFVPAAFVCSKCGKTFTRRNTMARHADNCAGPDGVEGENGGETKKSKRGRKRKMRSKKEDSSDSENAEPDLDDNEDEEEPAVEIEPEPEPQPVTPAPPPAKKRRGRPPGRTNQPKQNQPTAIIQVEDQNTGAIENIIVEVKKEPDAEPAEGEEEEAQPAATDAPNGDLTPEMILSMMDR

The list shows a part of the results.

Compound in one assay: O=C(O)c1ccc2c(c1)nc(Nc1cccc(Cl)c1)c1ccncc12 [silmitasertib]
Briefly: log2 fold change, soluble protein after heating vs DMSO (PISA); higher = thermal stabilisation; K562 cells, 10 uM, 30 min; active = over 0.2 and 3.5 SD of the protein, either way, in both replicates (recomputed). The method, boiled down: (§1)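 K562 cells (2×10^6 cells/mL) were treated with 10 μM compound for 30 min, and aliquots were heated for 3 min over 48°C-58°C. Pooled aliquots were extracted in PBS with 0.5% NP-40 at 4°C, and the supernatant after 21,000xg for 90 min was measured by TMTpro 16plex LC-MS/MS with channel sums equalised. Reported thermal stability, relative to control samples and from duplicates, is a log2 fold change.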
As to CWC15 (UniProt Q9P013), the log2 fold change was inactive: -0.004.

Consider CT45A5 (UniProt P0DMU8), for which the log2 fold change was inactive: 0.084.

CT45A10 (UniProt P0DMU9): the log2 fold change was inactive: 0.072.

With DCP1A (UniProt Q9NPI6), the log2 fold change was inactive: 0.053.

Turning to CSRP3 (UniProt P50461), the log2 fold change is inactive: 0.088.

Regarding CYP46A1 (UniProt Q9Y6A2), the log2 fold change was inactive: 0.01.

With CXorf38 (UniProt Q8TB03), the log2 fold change is inactive: -0.01.

Take CT55 (UniProt Q8WUE5): the log2 fold change was inactive: 0.121.

CTH (UniProt P32929): the log2 fold change was inactive: 0.

Consider CUL1 (UniProt Q13616), for which the log2 fold change was inactive: 0.015.

In the case of CUTC (UniProt Q9NTM9), the log2 fold change is inactive: -0.042.

As to CSRP1 (UniProt P21291), the log2 fold change was inactive: -0.041.

Turning to CUL2 isoform 2 (UniProt Q13617), the log2 fold change is inactive: 0.022.

DCTN2 isoform 2 (UniProt Q13561): the log2 fold change is inactive: 0.031.

DCAF1 (UniProt Q9Y4B6): the log2 fold change was inactive: 0.019.

CWC25 (UniProt Q9NXE8): the log2 fold change is inactive: 0.188.

Regarding CYP2S1 isoform 2 (UniProt Q96SQ9), the log2 fold change is inactive: 0.166.

For the target CYC1 (UniProt P08574), the log2 fold change was inactive: -0.01.

On to DCTN4 (UniProt Q9UJW0), for which the log2 fold change was inactive: 0.025.

As to CUL4A (UniProt Q13619), the log2 fold change was inactive: 0.016.

As to DCTN5 (UniProt Q9BTE1), the log2 fold change was inactive: 0.003.

For CTTN (UniProt Q14247), the log2 fold change is inactive: 0.011.

Consider CYB561A3 isoform 2 (UniProt Q8NBI2), for which the log2 fold change is inactive: 0.04.

For CSTF2T (UniProt Q9H0L4), the log2 fold change is inactive: 0.014.

For DCAF15 (UniProt Q66K64), the log2 fold change is inactive: -0.025.

Take DCUN1D4 isoform 3 (UniProt Q92564): the log2 fold change is inactive: -0.137.

In the case of DAD1 (UniProt P61803), the log2 fold change was inactive: -0.122.

Take CYHR1 (UniProt E9PJD7): the log2 fold change was inactive: 0.

As to CUSTOS (UniProt Q96C57), the log2 fold change is inactive: -0.004.

Take DCAF4L2 (UniProt Q8NA75): the log2 fold change was inactive: 0.063.

Regarding CYSTM1 (UniProt Q9H1C7), the log2 fold change is inactive: -0.092.

On to CTNNA1 isoform 2 (UniProt P35221), for which the log2 fold change is inactive: 0.044.

In the case of CTCF (UniProt P49711), the log2 fold change is inactive: 0.098.

DAGLB (UniProt Q8NCG7): the log2 fold change was inactive: -0.045.

Compound in a further assay: O=C1NC(=O)C(c2cnc3ccccn23)=C1c1cn2c3c(cc(F)cc13)CN(C(=O)N1CCCCC1)CC2
The description is as above. The gist of the method: as §1
With CWC15 (UniProt Q9P013), the log2 fold change is inactive: 0.046.

In the case of CT45A5 (UniProt P0DMU8), the log2 fold change is inactive: 0.195.

As for CT45A10 (UniProt P0DMU9), the log2 fold change is inactive: 0.189.

DCP1A (UniProt Q9NPI6): the log2 fold change is inactive: 0.021.

For DCP2 (UniProt Q8IU60), the log2 fold change is inactive: 0.048.

With CXorf38 (UniProt Q8TB03), the log2 fold change is inactive: -0.007.

In the case of CT55 (UniProt Q8WUE5), the log2 fold change is inactive: -0.027.

As for CTH (UniProt P32929), the log2 fold change was inactive: -0.028.

Consider CUL1 (UniProt Q13616), for which the log2 fold change is inactive: -0.036.

On to CUTC (UniProt Q9NTM9), for which the log2 fold change was inactive: -0.109.

With CSRP1 (UniProt P21291), the log2 fold change is inactive: 0.008.

CUL2 isoform 2 (UniProt Q13617): the log2 fold change is inactive: -0.023.

As to DCTN2 isoform 2 (UniProt Q13561), the log2 fold change was inactive: -0.011.

In the case of DCAF1 (UniProt Q9Y4B6), the log2 fold change is inactive: -0.102.

With CWC25 (UniProt Q9NXE8), the log2 fold change is inactive: 0.212.

For CYC1 (UniProt P08574), the log2 fold change was inactive: -0.003.

Regarding DCTN4 (UniProt Q9UJW0), the log2 fold change was inactive: -0.03.

For the target CUL4A (UniProt Q13619), the log2 fold change was inactive: -0.058.

CTTN (UniProt Q14247): the log2 fold change was inactive: -0.064.

With CSTF2T (UniProt Q9H0L4), the log2 fold change is inactive: 0.052.

As for DCAF15 (UniProt Q66K64), the log2 fold change was inactive: -0.031.

In the case of DCUN1D4 isoform 3 (UniProt Q92564), the log2 fold change is inactive: -0.182.

DAD1 (UniProt P61803): the log2 fold change was inactive: -0.038.

For the target CYHR1 (UniProt E9PJD7), the log2 fold change is inactive: 0.037.

As to CUSTOS (UniProt Q96C57), the log2 fold change is inactive: 0.035.

Turning to CTNNA1 isoform 2 (UniProt P35221), the log2 fold change was inactive: -0.041.

Regarding CTCF (UniProt P49711), the log2 fold change is inactive: 0.226.

Take DAGLB (UniProt Q8NCG7): the log2 fold change is inactive: -0.02.

Compound in a further assay: c1cc(OCCN2CCCCC2)cc(-c2n[nH]c3ccc(-c4nnc[nH]4)cc23)c1
Described as above. The method, boiled down:
as §1
With CWC15 (UniProt Q9P013), the log2 fold change is inactive: 0.005.

In the case of CT45A5 (UniProt P0DMU8), the log2 fold change is inactive: -0.133.

CT45A10 (UniProt P0DMU9): the log2 fold change was inactive: -0.082.

In the case of DCP1A (UniProt Q9NPI6), the log2 fold change is inactive: -0.139.

CSRP3 (UniProt P50461): the log2 fold change was inactive: -0.013.

Regarding CXorf38 (UniProt Q8TB03), the log2 fold change was inactive: -0.021.

For CT55 (UniProt Q8WUE5), the log2 fold change is inactive: -0.083.

Turning to CTH (UniProt P32929), the log2 fold change is inactive: 0.012.

CUL1 (UniProt Q13616): the log2 fold change was inactive: -0.016.

As to CUTC (UniProt Q9NTM9), the log2 fold change was inactive: -0.064.

With CSRP1 (UniProt P21291), the log2 fold change was inactive: -0.001.

On to CUL2 isoform 2 (UniProt Q13617), for which the log2 fold change was inactive: -0.007.

DCTN2 isoform 2 (UniProt Q13561): the log2 fold change was inactive: -0.028.

For DCAF1 (UniProt Q9Y4B6), the log2 fold change is inactive: -0.04.

Consider DAXX (UniProt Q9UER7), for which the log2 fold change was inactive: -0.076.

On to CWC25 (UniProt Q9NXE8), for which the log2 fold change is inactive: -0.262.

With CYC1 (UniProt P08574), the log2 fold change is inactive: -0.081.

Turning to DCTN4 (UniProt Q9UJW0), the log2 fold change is inactive: -0.108.

In the case of CUL4A (UniProt Q13619), the log2 fold change is inactive: -0.022.

Regarding DCTN5 (UniProt Q9BTE1), the log2 fold change was inactive: -0.056.

Consider CTTN (UniProt Q14247), for which the log2 fold change is inactive: 0.

With CYB561A3 isoform 2 (UniProt Q8NBI2), the log2 fold change was inactive: 0.035.

Take CSTF2T (UniProt Q9H0L4): the log2 fold change was inactive: 0.05.

DCAF15 (UniProt Q66K64): the log2 fold change is inactive: 0.033.

DCUN1D4 isoform 3 (UniProt Q92564): the log2 fold change was inactive: 0.075.

For the target DAD1 (UniProt P61803), the log2 fold change was inactive: 0.175.

Consider CYHR1 (UniProt E9PJD7), for which the log2 fold change is inactive: -0.061.

Take CUSTOS (UniProt Q96C57): the log2 fold change is inactive: -0.027.

Turning to DCAF4L2 (UniProt Q8NA75), the log2 fold change is inactive: -0.124.

On to CYSTM1 (UniProt Q9H1C7), for which the log2 fold change is inactive: -0.027.

With CTNNA1 isoform 2 (UniProt P35221), the log2 fold change was inactive: -0.049.

In the case of CTCF (UniProt P49711), the log2 fold change is inactive: -0.15.

As for DAGLB (UniProt Q8NCG7), the log2 fold change is inactive: 0.
